Values from PubChem BioAssay AID504774 (Drosophila RNAi Screening Center, 2011).
The deposit covers about 23,000 reagents; shown is a random part of those that have a named target and a result. 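Values are quantile-normalised luminescence on an arbitrary scale; higher means more cells surviving MMS.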 Reagents against one gene are numbered here. A plus sign joins genes that one reagent is predicted to hit. Not all columns of the deposit are shown.

Test: 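Knock-downs that shift viability of MMS-exposed cells relative to untreated ones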 (primary screen)
Cell system: Drosophila Kc167 cells
Knock-down reagent: long dsRNA against Drosophila genes, about 0.25 µg dsRNA per well
Timing: about 6 days: 3 days knock-down, then 3 days with or without MMS
Conditions: methyl methanesulphonate 0.004% (w/v) for 3 days after knock-down
Read-out: 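ATP-dependent luminescence as a measure of live cells in MMS-exposed wells, quantile normalised within each plate, with replicate values also given as a mean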
Reading the numbers: mean viability with MMS: higher = more surviving cells after MMS

mean viability with MMS, by target and reagent
ru: #1 3.54e6
CG17493: #1 3.39e6
slgA: #1 3.55e6
CG42372 + CG30100: #1 3.63e6
Taf4: #1 3.20e6
SLC5A11: #1 3.69e6
CG31140: #1 3.63e6; #2 3.61e6; #3 3.62e6
Ubc6: #1 3.50e6
CG7974: #1 3.56e6
Mef2: #1 3.51e6
CG14414: #1 3.53e6
c12.2: #1 3.53e6
rgr: #1 3.60e6; #2 3.61e6
Ldaf1: #1 3.60e6
a: #1 2.85e6; #2 3.45e6

Targets above whose target name begins with S or s:
mean viability with MMS, by target and reagent
slgA: #1 3.55e6
SLC5A11: #1 3.69e6

The list goes on.
mean viability with MMS, by target and reagent
CG9344: #1 3.48e6
CG32050 (retired record): #1 3.51e6
TBC1D16: #1 3.49e6
CG4069: #1 3.48e6
5-HT1B: #1 3.42e6; #2 2.68e6
CG7304: #1 3.62e6
Su(H): #1 3.42e6
RpS15Ab + RpS15Aa: #1 2.69e6; #2 2.92e6
